Measurements from US20230330100A1 (Woolsey Pharmaceuticals, Inc., priority 2022, published 2023).

Legend:
[1] = Tasting of fasudil solutions and formulations (bitterness rank, palatability) by tasters/panel; settings: drug in solution, unmasked
[2] = Taste threshold concentration for fasudil; settings: for most people; range accounting for super tasters and normal tasters

O=S(=O)(c1cccc2cnccc12)N1CCCNCC1 [fasudil, hexahydro-1-(5-isoquinolinesulfonyl)-1H-1,4-diazepine monohydrochloride hemihydrate]
taste of the drug ([1]; listed as fasudil hydrochloride, monohydrochloride hemihydrate): highly aversive numbing and bitter taste | taste of the drug ([1]; monohydrochloride hemihydrate): very aversive, bitter taste | taste threshold concentration [2]: 0.1 to 0.4 mg/mL

O=c1[nH]ccc2c(S(=O)(=O)N3CCCNCC3)cccc12 [hydroxyfasudil]
taste of the drug [1]: highly aversive numbing and bitter taste

Where a name gives a salt, the structure may show the parent alone.
